Results are given in words; binding and its absence hold for the method and conditions named. In cells and extracts the contact can be indirect. A yes stands for co-enrichment or nearness to the bait. Other partners may have been found. Where a sequence is shown, tags or fusion partners need not be part of it.
Experiments:
[1] = biological target: T1, Flag-tagged NUPR1 (wild type) (UniProt O60356); assay: affinity purification with mass spectrometry; MiaPaCa-2 cells expressing Flag-NUPR1 or GFP-NUPR1, normal conditions or 24 h glucose starvation; lysates on anti-Flag M2 beads or GFP-Trap agarose; eluted proteins identified by LC-MS/MS
T1 sequence: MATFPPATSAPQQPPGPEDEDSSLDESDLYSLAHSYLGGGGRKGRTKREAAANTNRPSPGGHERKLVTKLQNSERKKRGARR

GFP-tagged NUPR1 = biological target: T2, GFP-tagged NUPR1 (UniProt O60356); assay: as above
T2 sequence: T1 sequence

- binding [1]: binds
- binding (GFP-tagged NUPR1): binds
Substance: PARP1 (endogenous, MiaPaCa-2 cells) (human (endogenous in MiaPaCa-2)) (enzyme)
